For part of these data: Weaker means in comparison with the reference protein, sequence or condition of that experiment. For part of these data: Protein sequences can lack the tags named with them.
Key:
Experiment in all cases: activity in cells
[1] = test system: T1, p73beta; conditions: luciferase reporter in SAOS-2; notably augmented; protein in cells; protein details: HA tag; only the site is given
T1 sequence (looked up, limits assumed): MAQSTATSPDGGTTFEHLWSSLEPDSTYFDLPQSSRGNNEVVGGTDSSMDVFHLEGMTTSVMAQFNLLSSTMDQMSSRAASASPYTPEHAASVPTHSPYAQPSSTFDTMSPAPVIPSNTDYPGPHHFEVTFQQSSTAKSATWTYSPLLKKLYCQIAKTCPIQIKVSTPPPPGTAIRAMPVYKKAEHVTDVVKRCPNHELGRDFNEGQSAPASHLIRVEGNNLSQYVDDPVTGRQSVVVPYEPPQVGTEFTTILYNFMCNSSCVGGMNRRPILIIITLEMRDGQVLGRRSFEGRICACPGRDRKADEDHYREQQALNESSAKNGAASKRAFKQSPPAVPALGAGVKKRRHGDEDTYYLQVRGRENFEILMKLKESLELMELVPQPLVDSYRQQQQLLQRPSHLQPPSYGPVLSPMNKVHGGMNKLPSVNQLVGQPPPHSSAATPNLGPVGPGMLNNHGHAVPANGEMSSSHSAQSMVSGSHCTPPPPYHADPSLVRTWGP

[2] = biological target: p53 (UniProt P04637); conditions: luciferase reporter in SAOS-2; low augmentation; protein in cells; only the site is given
[3] = biological target: T2, p73alpha (UniProt O15350); conditions: luciferase reporter in SAOS-2; notably augmented; protein in cells; protein details: HA tag; only the site is given
T2 sequence (looked up, limits assumed): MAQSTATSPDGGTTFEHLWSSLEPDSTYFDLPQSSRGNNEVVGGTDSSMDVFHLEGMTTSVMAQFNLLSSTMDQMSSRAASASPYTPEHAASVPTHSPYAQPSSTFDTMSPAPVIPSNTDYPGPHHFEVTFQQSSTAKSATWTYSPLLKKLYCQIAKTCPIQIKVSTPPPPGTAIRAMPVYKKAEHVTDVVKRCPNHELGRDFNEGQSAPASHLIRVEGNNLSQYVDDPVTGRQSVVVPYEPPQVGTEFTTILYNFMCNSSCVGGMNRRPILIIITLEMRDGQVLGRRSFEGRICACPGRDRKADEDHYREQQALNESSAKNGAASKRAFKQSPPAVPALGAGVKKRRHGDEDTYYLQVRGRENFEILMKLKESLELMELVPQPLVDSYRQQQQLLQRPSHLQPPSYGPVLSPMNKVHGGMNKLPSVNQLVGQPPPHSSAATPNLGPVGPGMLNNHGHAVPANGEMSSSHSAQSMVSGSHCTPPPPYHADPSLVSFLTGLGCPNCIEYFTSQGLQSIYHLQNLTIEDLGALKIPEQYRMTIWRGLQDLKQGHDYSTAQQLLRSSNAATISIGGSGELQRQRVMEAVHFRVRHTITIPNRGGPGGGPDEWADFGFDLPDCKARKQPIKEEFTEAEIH

## GGGCAAGCTGAGGCCTGCCC (double strand) [deltaNp73P(-76/-57) p73-binding element]
[1]
  activity on this sequence: active
[2]
  activity on this sequence: less active
[3]
  activity on this sequence: active

From patent US20060240417
